Experimental data from publication PMC3324426.
No constants are given. Whether binding was seen depends on the method and setting. In cells and extracts the contact can be indirect. A result given as binding can be weak or reduced; the word gives no strength.

The chains behind the UniProt entries cited, without tags or fusion partners. Where a name states a change or a piece, a line headed by the entry shows the natural chain unless it says otherwise. Residues count along the entry.
UniProt P28799, residues 18-593: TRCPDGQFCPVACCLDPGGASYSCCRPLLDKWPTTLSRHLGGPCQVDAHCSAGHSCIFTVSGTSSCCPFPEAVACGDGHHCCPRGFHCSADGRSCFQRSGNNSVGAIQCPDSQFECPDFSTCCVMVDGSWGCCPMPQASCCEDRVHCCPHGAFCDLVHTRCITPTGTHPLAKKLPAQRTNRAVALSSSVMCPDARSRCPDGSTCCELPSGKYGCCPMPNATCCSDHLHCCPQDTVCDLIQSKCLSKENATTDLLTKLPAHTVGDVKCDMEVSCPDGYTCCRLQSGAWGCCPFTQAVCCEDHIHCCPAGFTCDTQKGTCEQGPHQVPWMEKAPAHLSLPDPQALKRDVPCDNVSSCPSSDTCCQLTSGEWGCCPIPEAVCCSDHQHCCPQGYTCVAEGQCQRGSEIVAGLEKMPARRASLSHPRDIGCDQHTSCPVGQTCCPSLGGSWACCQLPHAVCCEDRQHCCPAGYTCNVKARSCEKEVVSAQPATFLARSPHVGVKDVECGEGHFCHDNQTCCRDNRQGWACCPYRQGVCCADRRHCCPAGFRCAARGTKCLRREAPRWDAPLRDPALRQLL
UniProt P39900: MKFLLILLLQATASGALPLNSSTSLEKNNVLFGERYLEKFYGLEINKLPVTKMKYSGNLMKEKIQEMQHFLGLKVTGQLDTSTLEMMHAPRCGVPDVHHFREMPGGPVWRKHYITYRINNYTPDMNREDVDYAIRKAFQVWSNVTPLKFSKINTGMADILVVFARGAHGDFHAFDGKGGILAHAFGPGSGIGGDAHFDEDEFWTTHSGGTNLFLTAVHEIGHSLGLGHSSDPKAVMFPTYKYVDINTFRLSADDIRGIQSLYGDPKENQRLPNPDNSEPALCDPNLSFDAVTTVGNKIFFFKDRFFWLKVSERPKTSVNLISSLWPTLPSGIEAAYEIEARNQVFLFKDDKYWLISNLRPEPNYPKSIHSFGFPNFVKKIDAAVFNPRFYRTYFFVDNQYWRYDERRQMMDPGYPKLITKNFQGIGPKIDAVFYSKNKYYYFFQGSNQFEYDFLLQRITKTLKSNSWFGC

Target: Progranulin (human (endogenous in primary fetal microglia)) (UniProt P28799)
Assay: co-IP; untreated (control) microglial cell lysates, pre-cleared with protein A agarose, anti-PGRN (C-terminal) rabbit antibody 1 h, protein A agarose overnight at 4°C; immunoblot for PGRN and MMP-12 with clean-blot IP detection reagent

Substance: Matrix metalloproteinase-12 (macrophage elastase) (from UniProt P39900) (enzyme)
- binding: binds
